# Results published in patent EP4647494 (dated 2024).
# Assay: general procedure: Fmoc solid-phase peptide synthesis; Rink Amide-AM Resin; HCTU/NMM
# Conditions: whole synthesis, analytical HPLC and LC/MS, scale 0.2 mmol
substance,measurement,value
"PEPTIDE1{G.K.W.G.F.Y.T.K.V.F.R.L.K.K.W.I.K.K.V.I.C.T.F.G.C.[am]}$PEPTIDE1,PEPTIDE1,21:R3-25:R3$$$V2.0",final HPLC purity,>95%

# Strings that start with PEPTIDE1 are HELM notation: dots part the residues, brackets hold end groups and non-standard residues.
